Article PMC9403361
These are yes or no findings as the source states them, for the method shown. Binding seen in cells or lysates may run through a third protein. Binding can be weak; no strength is given. For part of these data: Sequences can lack the tags named with a protein.

Amino acid sequences for entries named in this document (tags omitted). A change or cut given only in a name is not applied to a line headed by its entry. Residues count along the entry.
UniProt Q15075, residues 1-209: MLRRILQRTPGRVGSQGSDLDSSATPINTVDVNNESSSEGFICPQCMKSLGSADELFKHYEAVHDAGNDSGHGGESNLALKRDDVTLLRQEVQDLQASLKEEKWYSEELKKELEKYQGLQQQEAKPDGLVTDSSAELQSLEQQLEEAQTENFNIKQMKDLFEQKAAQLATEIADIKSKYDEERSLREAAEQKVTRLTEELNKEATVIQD
UniProt Q9UL26: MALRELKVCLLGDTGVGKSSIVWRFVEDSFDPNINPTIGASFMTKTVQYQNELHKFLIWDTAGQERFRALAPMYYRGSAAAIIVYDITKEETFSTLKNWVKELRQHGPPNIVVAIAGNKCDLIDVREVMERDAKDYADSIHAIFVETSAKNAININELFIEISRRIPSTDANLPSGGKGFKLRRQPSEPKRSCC
UniProt Q13636: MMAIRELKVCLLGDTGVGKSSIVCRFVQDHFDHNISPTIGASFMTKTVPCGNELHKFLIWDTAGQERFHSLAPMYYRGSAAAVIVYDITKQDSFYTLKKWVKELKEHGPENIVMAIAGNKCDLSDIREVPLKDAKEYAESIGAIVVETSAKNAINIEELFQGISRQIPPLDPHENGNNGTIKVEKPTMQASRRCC

What was measured:
Test in all cases: pull-down; GST-effector fusion protein on glutathione-Sepharose beads incubated with clarified lysate of transfected cells for 1 h at 4 °C; lysis buffer 20 mM Hepes pH 7.4, 100 mM NaCl, 5 mM MgCl2, 0.1% NP40, 10% glycerol, 1 mM DTT; washed 3 times with PBS-T (1% Triton X-100); immunoblot with anti-Myc or anti-Rab antibody, bands quantified with LI-COR Odyssey; only the target purified
[1] = biological target: T1, GST fusion protein of Rabenosyn-5 RBD-C (aa728-784) (UniProt Q9H1K0)
T1 sequence: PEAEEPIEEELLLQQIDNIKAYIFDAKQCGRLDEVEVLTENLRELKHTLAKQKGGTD

[2] = biological target: T2, GST fusion protein of Rabenosyn-5 RBD-N (aa1-40) (UniProt Q9H1K0)
T2 sequence: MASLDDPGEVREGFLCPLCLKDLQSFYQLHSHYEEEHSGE

[3] = biological target: GST fusion protein of EEA1 RBD-N (aa1-209) (UniProt Q15075)

Measured: binding

Rab22 (from UniProt Q9UL26)
binds: [1] | [2] | [3]

Rab31 (from UniProt Q13636)
binds: [1] | [2] | [3]
